The other results are listed elsewhere or left out. Further columns of the screen follow, without active or inactive calls. Compounds called inactive in the main read-out are mostly missing here. The note in brackets gives the kind of curve behind each potency; many fits are weak.
Experiment: qHTS Assay for Modulators of Lamin A Splicing
Conditions: HeLa LMNA splicing GFP/RFP minigene ratio, 48 h
In short: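 S3 HeLa stable clones carrying a lamin A-EGFP splicing minigene plus DsRed2 were seeded at 600 cells/well in Opti-MEM with 2% FBS, pin-dosed and incubated 48 h at 37°C. Acumen cytometry (488 nm) gave the GFP/RFP total-intensity ratio.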

[1] = measured here: GFP splicing reporter channel
[2] = measured here: RFP viability control channel

Compound	AC50 [1]	AC50 [2]
CCn1c(O)c(N=NC(=S)NCC2CCCO2)c2ccccc21 (stereo not given)	2.51 µM [rising, full curve, poor fit]	35.5 µM [rising, single point]
O=c1cc(O)nc(SCc2ccccc2)n1-c1ccccc1	–	14.1 µM [falling, partial curve, poor fit]
Cc1cc(-c2nc3ncccc3o2)ccc1NC(=O)COc1ccccc1C	–	0.02 µM [falling, full curve, poor fit]
O=c1c(CCc2ccccc2)nc2cnc(Nc3ccccc3)nc2n1C[C@H]1CCCO1	–	12.6 µM [falling, partial curve, poor fit]
Cc1ccc(S(=O)(=O)N2CCC(C(=O)N/N=C/c3cccnc3)CC2)cc1	–	0.0112 µM [falling, full curve, poor fit]
CN(Cc1ccco1)c1ncnc2ccc(-c3cccc(NS(C)(=O)=O)c3)cc12	22.4 µM [falling, single point]	35.5 µM [falling, single point]
Cc1ccc(CSCCNC(=O)/C=C/c2ccccc2Cl)cc1	14.1 µM [rising, single point]	–
CCCCNC(=S)NCc1ccc2c(c1)cc(C)n2C	–	35.5 µM [rising, single point]
O=[N+]([O-])C(=C1Nc2ccccc2N1)C(Cl)=C(Cl)Cl	2.24 µM [falling, partial curve, poor fit]	–
COCCNS(=O)(=O)c1cc(-c2nn(C)c(=O)c3ccccc23)ccc1C	22.4 µM [rising, single point]	15.8 µM [rising, single point]
Fc1cccc(Nc2nc(-c3ccncc3)nc3ccccc23)c1	–	2.82 µM [rising, partial curve]
CC1SCC(=O)N(CC(=O)NCCc2ccccc2)C1=O (stereo not given)	–	1.41 µM [falling, partial curve, poor fit]
Cc1ccccc1-n1c(=O)cc(NCc2ccc3c(c2)OCO3)[nH]c1=O	–	15.8 µM [rising, partial curve, poor fit]
CCOc1ccc(N2CC(NC(=O)/C=C\c3ccc4c(c3)OCO4)CC2=O)cc1 (stereo not given)	–	3.55 µM [rising, full curve, poor fit]
OCCNc1nc(-c2cccnc2)nc2ccccc12	–	0.0794 µM [falling, full curve, poor fit]
CCOC(=O)c1sc2ccccc2c1S(=O)(=O)Nc1ccc(CC)cc1	2 µM [rising, partial curve]	–
CCOC(=O)CC1CCCCN1Cc1cn[nH]c1-c1ccc(F)cc1F (stereo not given)	2.24 µM [rising, full curve, poor fit]	–
C=CCn1c(CCC(=O)Nc2ccc(C)c(Cl)c2)nnc1SCC(=O)Nc1ccccc1C	22.4 µM [falling, single point]	28.2 µM [falling, single point]
COc1ccc(C(=O)C[n+]2ccccc2/C=N/O)cc1	–	0.158 µM [rising, full curve]

Compound	AC50 [1]	AC50 [2]
O=C(COc1ccccc1Cl)Nc1ccc(Cl)cn1	–	6.31 µM [rising, single point]
CCOc1cc(-c2noc(N)c2C#N)cc(OCC)c1OCC	28.2 µM [falling, single point]	35.5 µM [falling, single point]
COc1ccccc1OCCCn1cc(C#N)c2ccccc21	7.94 µM [falling, partial curve, poor fit]	12.6 µM [falling, single point]
CCc1cc2cc(C)cc(C)c2nc1Cl	0.0112 µM [rising, full curve, poor fit]	–
O=C(CNc1ccc(Br)cc1)NNC1=NCCC1	–	12.6 µM [rising, single point]
O=S(=O)(Nc1cc(F)ccc1F)c1ccc2[nH]c3c(c2c1)CCCC3	–	3.55 µM [rising, single point]
CCn1ncc(Br)c1C(=O)N(C)C12CC3CC(CC(C3)C1)C2	17.8 µM [rising, single point]	25.1 µM [rising, single point]
C=CCN(c1ccc(C(=O)Nc2cccc([N+](=O)[O-])c2)cc1)S(C)(=O)=O	–	25.1 µM [falling, partial curve, poor fit]
Cc1ccc(C)c(-n2c(C)cc(/C=N/NC(=O)c3c(C)nc4cc(C)ccn34)c2C)c1	12.6 µM [rising, partial curve]	15.8 µM [rising, single point]
CC(C)(C)c1ccccc1NC(=S)NC1CCCCC1	–	0.0447 µM [falling, full curve, poor fit]
COc1cc(/C=N/NC(=O)c2cccc(S(=O)(=O)N3CCCCC3)c2)cc(Br)c1O	–	0.708 µM [rising, full curve, poor fit]
COC(=O)CN1C(=S)N(Cc2ccccc2)C(=O)C1CC(=O)Nc1ccc(Br)cc1 (stereo not given)	35.5 µM [falling, single point]	35.5 µM [falling, single point]
O=c1cc2c(nn1Cc1ccccc1)-c1ccccc1CC2	–	0.447 µM [falling, full curve, poor fit]
Cc1ccc(COC(=O)CCc2nc3ccccc3c(=O)[nH]2)cc1	–	0.0282 µM [rising, full curve, poor fit]
COc1ccccc1/C=N/NC(=O)C(=O)NCc1cccnc1	–	0.0355 µM [falling, full curve, poor fit]
Cc1cc(C)cc(NC(=O)Cn2cc(S(=O)(=O)NC(C)(C)C)c(S(=O)(=O)NC(C)(C)C)c2)c1	–	15.8 µM [rising, single point]
Cc1ccc(S(=O)(=O)Nc2cccc3ncccc23)s1	3.16 µM [rising, full curve, poor fit]	12.6 µM [rising, partial curve]
O=C1C2CCCN2C(c2ccc(F)cc2)N1c1ccc(Cl)cc1 (stereo not given)	–	31.6 µM [rising, single point]
CCOC(=O)NNC(=O)C12CC3CC(CC(C3)C1)C2	–	44.7 µM [falling, partial curve, poor fit]

Compound	AC50 [1]	AC50 [2]
S=c1[nH]nc(-c2ccc(Cl)cc2)n1-c1ccc2c(c1)OCCO2	10 µM [rising, partial curve]	12.6 µM [rising, partial curve]
CCOc1ccc(Nc2oc(-c3ccco3)nc2C#N)cc1	–	11.2 µM [rising, partial curve]
CCCC(=O)NC(c1ccc(OC)c(OC)c1)c1cc(Cl)c2cccnc2c1O (stereo not given)	7.08 µM [falling, partial curve, poor fit]	8.91 µM [falling, partial curve, poor fit]
COc1cc2c(cc1NC(=O)CN(C)Cc1ccc(OC)c(OC)c1)oc1ccccc12	–	5.01 µM [rising, partial curve, poor fit]
CN(C)CCNC(=O)COc1ccc(C23CC4CC(CC(C4)C2)C3)cc1	–	35.5 µM [rising, single point]
O=C(Nc1nc2ccc3ccccc3c2s1)c1ccc(N2CCCCC2)c([N+](=O)[O-])c1	–	0.562 µM [rising, full curve, poor fit]
O=C(O)/C=C/c1ccc2ccccc2n1	–	14.1 µM [rising, partial curve]
COc1ccc(CCN=C(N)NS(=O)(=O)c2ccccc2)cc1	35.5 µM [rising, single point]	35.5 µM [rising, single point]
O=C(NCC1CCCO1)c1ccc(S(=O)(=O)N2CCC(c3nc4ccc(Cl)cc4[nH]3)CC2)cc1 (stereo not given)	–	22.4 µM [rising, single point]
O=c1[nH]c(N/N=C/c2ccc(O)cc2)nc2ccccc12	–	11.2 µM [rising, partial curve, poor fit]
NS(=O)(=O)c1cccc(NC(=O)CSc2nn(-c3ccccc3)c(=S)s2)c1	20 µM [rising, single point]	35.5 µM [rising, single point]
CCOC(=O)c1oc2ccccc2c1CSc1nnnn1-c1ccc(C)cc1	35.5 µM [rising, single point]	35.5 µM [rising, single point]
c1ccn2c(CNc3ncnc4sccc34)nnc2c1	–	35.5 µM [rising, single point]
COc1ccc(C2=Nc3ccc(Br)cc3C(c3ccccc3)N2CC(=O)NN)cc1 (stereo not given)	–	31.6 µM [rising, single point]
Cn1c(-c2ccccc2)c(C(=O)CC#N)c2ccccc21	0.794 µM [rising, full curve, poor fit]	–
O=C1CCCc2c1[nH]c1ccc(Br)cc21	1.41 µM [falling, full curve]	1.41 µM [falling, full curve]
COc1cccc(-c2nccc(NCc3ccccc3OC)n2)c1	12.6 µM [falling, partial curve]	12.6 µM [falling, partial curve]
CCn1c(CN2CCC(C)CC2)nc2cc(NC(=O)COc3ccc([N+](=O)[O-])cc3)ccc21	10 µM [falling, partial curve]	14.1 µM [falling, partial curve]
Cc1cc(Cl)c(S(=O)(=O)NCC2CCCO2)cc1OCC(=O)NC1CCCCC1 (stereo not given)	–	31.6 µM [rising, single point]

Nothing new here: two of the compounds above.
Compound	AC50 [1]	AC50 [2]
O=C1CCCc2c1[nH]c1ccc(Br)cc21	1.41 µM [falling, full curve]	1.41 µM [falling, full curve]
COc1cccc(-c2nccc(NCc3ccccc3OC)n2)c1	12.6 µM [falling, partial curve]	12.6 µM [falling, partial curve]
